The assay in a line: qHTS Assay for Lipid Storage Modulators in Drosophila S3 Cells.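 For cell number change: cells counted by Cell Tracker Red CMTPX staining in the red channel.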 The settings on record: BODIPY lipid droplet fluorescence, 18-24 h; for cell number change: measured here: cell count max response, cells fed with added oleic acid. A digest of the protocol: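 Laser-scanning cytometry quantifies lipid droplet accumulation (500–530 nm total intensity; droplet/cell object ratio) in oleic acid-fed (400 uM added) Drosophila S3 cells treated with a concentration series. 20 uM Triacsin C defined 100% inhibition.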

Where [1] appears, read: measured here: lipid fluorescence (Fed channel) AC50, cells fed with added oleic acid.
The mark [2] stands for this setting: measured here: cell number channel AC50, cells fed with added oleic acid.

The values that follow come from PubChem BioAssay AID2685 (National Center for Advancing Translational Sciences (NCATS), 2010).

Some of the results follow. These are further read-outs of the screen, such as a control signal, another cell line or another target. No call is given for them. The list favours compounds with an active or inconclusive main result. The note in brackets gives the kind of curve behind each potency; many fits are weak.

Turning to `COc1ccc(/C=N/Nc2cc(C)nc(-n3nc(C)cc3C)n2)c(OC)c1`, the cell number change was -24.7%. Under setting [1], the concentration at half-maximal activity (AC50) – broadly, the concentration giving half of the maximal activity seen – is 13 µM [falling, partial curve, poor fit].
Regarding `CC(=O)Oc1ccccc1N1C(=O)c2ccc(C(=O)O)cc2C1=O`, the cell number change is -35.5%. Also, the concentration at half-maximal activity (AC50) under setting [2] is 0.164 µM [falling, full curve, poor fit]. The half-maximal activity concentration (AC50) under setting [1] is 0.411 µM [falling, partial curve, poor fit].
With `CNC(=O)c1cc(S(=O)(=O)NC2CCCCCC2)ccc1C`, the cell number change is -9.39%. In addition, the AC50 under setting [1] was 29.1 µM [falling, single point].
With `CCOCCCNC(=S)Nc1ccc2nc(N3CCN(CC)CC3)cc(C)c2c1`, the concentration at half-maximal activity (AC50) under setting [1] is 25.9 µM [rising, single point].
For `Cc1cc(NC(=O)C2CCCCC2)ccc1NC(=O)c1ccccc1Cl`, the cell number change was found to be 2.97%. Besides, the AC50 under setting [2] was 3.66 µM [rising, single point].
For the compound `O=C(Nc1ccc(Br)cc1)Nc1ccccc1Cl`, the cell number change is -50%. Further, the AC50 under setting [2] was 23.1 µM [falling, single point]. Further, the AC50 under setting [1] was 16.4 µM [falling, single point].
Consider `CCOc1cccc(-c2nnc(SCC(=O)Nc3ccc(OC)c(OC)c3)n2N)c1`, for which the cell number change turned out to be 8.95%. In addition, the half-maximal activity concentration (AC50) under setting [1] is 0.731 µM [rising, partial curve, poor fit].
Regarding `COc1cc(Br)c(C(=O)c2nccc3cc(OC)c(OC)cc23)cc1OC`, the cell number change was -34%. Also, the AC50 under setting [2] is 9.2 µM [falling, partial curve]. Besides, the half-maximal activity concentration (AC50) under setting [1] is 0.651 µM [falling, partial curve, poor fit].
With `O=C(c1cc(-c2ccc(F)cc2)on1)N1CCN(c2ccc(F)cc2)CC1`, the cell number change worked out at 10%. Further, the AC50 under setting [1] is 29.1 µM [rising, single point].
For the compound `COc1ccc(C2CN=NC23CCCc2ccccc2C3=O)cc1` (centres undefined), the cell number change was -11.2%.
Take `Cn1c(N2CCCC2)nc2c1c(=O)[nH]c(=O)n2C`: the cell number change is -36.8%. Also, the AC50 under setting [2] is 11.6 µM [falling, partial curve, poor fit].
Turning to `CC(=O)Nc1cc[n+](C(C)C(=O)c2ccc(Br)cc2)cc1` (centres undefined), the cell number change was 17.5%. Also, the AC50 under setting [1] was 6.51 µM [falling, single point].
As to `Cc1cc(C(=O)OCC(=O)N2CC(C)OC(C)C2)c2ccccc2n1` (centres undefined), the cell number change came to 66.6%. Under setting [2], the AC50 was 6.51 µM [rising, full curve].
In the case of `N#Cc1cccc(S(=O)(=O)NCCOc2ccccc2F)c1`, the cell number change came to 24.8%. Besides, under setting [1], the concentration at half-maximal activity (AC50) was 29.1 µM [rising, single point].
Regarding `COc1ccc(C(=O)c2cc3ccc(O)cc3oc2=O)cc1`, the cell number change is -1.54%. In addition, the AC50 under setting [1] was 6.51 µM [falling, single point].
As to `CCOC(=O)CSc1nc(C(C)C)nc2ccccc12`, the concentration at half-maximal activity (AC50) under setting [1] is 0.0651 µM [falling, full curve, poor fit].
`O=S(=O)(c1ccccc1)N1CN(Cc2ccc(F)cc2)c2nc3ccccc3nc21`: the cell number change is -9.5%. The AC50 under setting [1] was 2.31 µM [rising, partial curve].
On to `O=C(O)/C(=C\c1c(C(=O)O)[nH]c2cc(Cl)cc(Cl)c12)c1ccccc1`, for which, under setting [1], the AC50 was 2.06 µM [falling, partial curve, poor fit].
Turning to `COC(=O)C1=C(C)N(CCc2ccccc2)C(=O)/C1=C\c1ccco1`, the cell number change is -36.4%. Also, under setting [2], the AC50 was 29.1 µM [falling, single point]. The half-maximal activity concentration (AC50) under setting [1] was 0.291 µM [falling, full curve].
For the compound `CC(C)C[C@H]1CN=C(N(C)C)N1CC1CCCC1`, the cell number change came to 25.3%. In addition, the AC50 under setting [1] was 25.9 µM [rising, single point].
Consider `CC[N+]1=C(C)C(C)(C)c2cc(C)ccc21`, for which, under setting [1], the AC50 was 0.731 µM [falling, full curve].
With `CC(C)NC(=S)N(C)C1(c2ccccc2Cl)CCCCC1=O` (centres undefined), the cell number change was -15.6%. Moreover, the AC50 under setting [2] is 6.51 µM [falling, single point]. Moreover, the AC50 under setting [1] is 11.6 µM [falling, partial curve].
Turning to `Oc1ccc(/C=N/N(Cc2ccccc2)c2ccccc2)cc1`, the cell number change is -47.1%. Also, the AC50 under setting [2] is 18.4 µM [falling, single point]. In addition, under setting [1], the half-maximal activity concentration (AC50) was 29.1 µM [falling, single point].
In the case of `CC(=O)OC1COC(n2ccc3cc([N+](=O)[O-])ccc32)C(OC(C)=O)C1OC(C)=O` (centres undefined), the cell number change was -0.956%. Moreover, the concentration at half-maximal activity (AC50) under setting [1] is 3.26 µM [rising, single point].
As for `CCN(CC)S(=O)(=O)c1cc(NC(=O)Cc2n[nH]c(=O)c3ccccc23)ccc1C`, the cell number change is -1.05%. Also, the concentration at half-maximal activity (AC50) under setting [2] was 1.64 µM [rising, single point]. Besides, the half-maximal activity concentration (AC50) under setting [1] is 2.59 µM [rising, single point].
For the compound `Nc1c(N=Nc2cccc(Cl)c2)c(=O)[nH]n1-c1ccccc1`, the cell number change was -47.3%. The AC50 under setting [2] was 23.1 µM [falling, single point].
`Cn1nc(C(=O)N2CCN(c3ccccc3F)CC2)c2c1-c1ccccc1S(=O)(=O)C2`: the cell number change was 14.9%.
Regarding `CCCC(=O)Nc1sc(C)c(-c2ccc(C(C)CC)cc2)c1C#N` (centres undefined), the cell number change was 9.77%. In addition, under setting [1], the half-maximal activity concentration (AC50) is 18.4 µM [rising, partial curve, poor fit].
Turning to `Cc1ccccc1-n1c(N)cc(=O)[nH]c1=S`, the cell number change was -28.8%. Moreover, the half-maximal activity concentration (AC50) under setting [2] was 0.651 µM [falling, full curve]. The half-maximal activity concentration (AC50) under setting [1] was 2.06 µM [falling, full curve].
For the compound `CCc1ccccc1NC(=O)CN1C(=O)c2ccccc2S1(=O)=O`, the cell number change was -15.8%.
As to `O=[N+]([O-])c1cccc(-n2nncc2-c2ccccc2)c1`, the cell number change is 17.9%. Also, under setting [1], the concentration at half-maximal activity (AC50) was 0.58 µM [falling, single point].
Take `CCOC(=O)C(=Cc1ccccc1OC)C(=O)OCC`: the cell number change was -7.79%. Moreover, the AC50 under setting [1] was 23.1 µM [falling, partial curve, poor fit].
Regarding `O=C(O)c1ccc(/C=N/NC(=O)c2cc(-c3ccc4c5c(cccc35)CC4)n[nH]2)cc1`, the half-maximal activity concentration (AC50) under setting [1] is 0.146 µM [falling, full curve, poor fit].
Take `O=C(CNc1ccc(Br)cc1)Nc1ccc(S(=O)(=O)N2CCCC2)cc1`: the cell number change is -64.4%. Besides, the concentration at half-maximal activity (AC50) under setting [2] is 16.4 µM [falling, partial curve]. Moreover, the AC50 under setting [1] was 0.259 µM [falling, full curve, poor fit].
As to `CCOc1ccccc1NC(=O)N1CCC(C(=O)c2ccc(F)cc2)CC1`, the cell number change turned out to be 59.1%. In addition, under setting [2], the half-maximal activity concentration (AC50) was 0.92 µM [rising, partial curve]. Further, the half-maximal activity concentration (AC50) under setting [1] was 0.259 µM [rising, full curve, poor fit].
For `Cc1c(-n2c(SCC(=O)NC(C)C(C)C)nc3ccccc3c2=O)c(=O)n(-c2ccccc2)n1C` (centres undefined), the cell number change was determined as 44.5%. Moreover, the half-maximal activity concentration (AC50) under setting [2] was 4.11 µM [rising, full curve, poor fit].
